No constants are given. Whether binding was seen depends on the method and setting. Binding seen in cells or lysates may run through a third protein. These calls come from enrichment with a bait or labelling near it, and not all partners need be listed. Sequences can lack the tags named with a protein.

The test deals with T1, Cip1-13myc (S. cerevisiae) (UniProt Q02606).
T1 sequence: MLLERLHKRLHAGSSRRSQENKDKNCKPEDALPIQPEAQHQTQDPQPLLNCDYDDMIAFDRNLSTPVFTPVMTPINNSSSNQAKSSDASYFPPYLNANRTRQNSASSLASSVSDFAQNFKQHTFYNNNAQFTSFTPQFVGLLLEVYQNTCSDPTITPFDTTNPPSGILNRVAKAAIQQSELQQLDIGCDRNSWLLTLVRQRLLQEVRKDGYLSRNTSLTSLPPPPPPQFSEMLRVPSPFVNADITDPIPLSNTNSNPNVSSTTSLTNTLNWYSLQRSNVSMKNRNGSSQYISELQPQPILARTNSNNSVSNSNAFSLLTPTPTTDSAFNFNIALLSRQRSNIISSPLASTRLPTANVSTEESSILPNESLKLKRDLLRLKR
Description: affinity purification with mass spectrometry; large-scale anti-myc immunoprecipitation of Cip1-13myc from extract of about 10 g of exponentially growing cells; 6 washes with lysis buffer; elution with 8 M urea; differential SDS-PAGE bands analysed by mass spectrometry; mock IP from untagged cells as control.

B1: Lge1 (protein, UniProt Q02796 1-332)
chain: MSGYTGNNYSRYSSTPPRQRGGYHHARRSRGGAGGSYYRGGNASYGARYNSDYEQPPQEGDLRQTGAYYRNGYTDTRPYYSANSRHYQAQPSPRYNNGTNSYHLPQRGNSQDTNGRTTSASQEDNDEKRVKSRYRNMQADHPRQQPMSVGSTSSRNGSSGNSSTSSTSNGLPPPPSVSSITNNRSYHSSAYPYSSSHTYNNYHHRETPPPPPSNGYYAKGYPVHVPENRSNSDGSSSSVVKKKRILDMKDSPFIYLTDFDKNVKKTNNTESECEKAREVFKESDSIDSALEELNLKINSNELELRLLNNQCDKHALNIQLTQEKLDSLLLMQ
Turning to B1, the binding result is “binds”.

B2: Cln1 (protein, UniProt P20437 1-546)
chain: MNHSEVKTGLIVTAKQTYYPIELSNAELLTHYETIQEYHEEISQNVLVQSSKTKPDIKLIDQQPEMNPHQTREAIVTFLYQLSVMTRVSNGIFFHAVRFYDRYCSKRVVLKDQAKLVVGTCLWLAAKTWGGCNHIINNVSIPTGGRFYGPNPRARIPRLSELVHYCGGSDLFDESMFIQMERHILDTLNWDVYEPMINDYILNVDENCLIQYELYKNQLQNNNSNGKEWSCKRKSQSSDDSDATVEEHISSSPQSTGLDGDTTTMDEDEELNSKIKLINLKRFLIDLSCWQYNLLKFELYEICNGMFSIINKFTNQDQGPFLSMPIGNDINSNTQTQVFSIIINGIVNSPPSLVEVYKEQYGIVPFILQVKDYNLELQKKLQLASTIDLTRKIAVNSRYFDQNASSSSVSSPSTYSSGTNYTPMRNFSAQSDNSVFSTTNIDHSSPITPHMYTFNQFKNESACDSAISVSSLPNQTQNGNMPLSSNYQNMMLEERNKENRIPNSSSAEIPQRAKFMTTGIFQNTGELTNRASSISLSLRNHNSSQL
As for B2, the binding result is on record as “binds”.

B3: Ccr4 (protein, UniProt P31384 1-837)
chain: MNDPSLLGYPNVGPQQQQQQQQQQHAGLLGKGTPNALQQQLHMNQLTGIPPPGLMNNSDVHTSSNNNSRQLLDQLANGNANMLNMNMDNNNNNNNNNNNNNNNGGGSGVMMNASTAAVNSIGMVPTVGTPVNINVNASNPLLHPHLDDPSLLNNPIWKLQLHLAAVSAQSLGQPNIYARQNAMKKYLATQQAQQAQQQAQQQAQQQVPGPFGPGPQAAPPALQPTDFQQSHIAEASKSLVDCTKQALMEMADTLTDSKTAKKQQPTGDSTPSGTATNSAVSTPLTPKIELFANGKDEANQALLQHKKLSQYSIDEDDDIENRMVMPKDSKYDDQLWHALDLSNLQIFNISANIFKYDFLTRLYLNGNSLTELPAEIKNLSNLRVLDLSHNRLTSLPAELGSCFQLKYFYFFDNMVTTLPWEFGNLCNLQFLGVEGNPLEKQFLKILTEKSVTGLIFYLRDNRPEIPLPHERRFIEINTDGEPQREYDSLQQSTEHLATDLAKRTFTVLSYNTLCQHYATPKMYRYTPSWALSWDYRRNKLKEQILSYDSDLLCLQEVESKTFEEYWVPLLDKHGYTGIFHAKARAKTMHSKDSKKVDGCCIFFKRDQFKLITKDAMDFSGAWMKHKKFQRTEDYLNRAMNKDNVALFLKLQHIPSGDTIWAVTTHLHWDPKFNDVKTFQVGVLLDHLETLLKEETSHNFRQDIKKFPVLICGDFNSYINSAVYELINTGRVQIHQEGNGRDFGYMSEKNFSHNLALKSSYNCIGELPFTNFTPSFTDVIDYIWFSTHALRVRGLLGEVDPEYVSKFIGFPNDKFPSDHIPLLARFEFMKTNTGSKKV
For B3, the binding result was “binds”.

B4: Caf120 (protein, UniProt P53836 1-1060)
chain: MRIFSGDNKVVDSLASNPGLMSPSNFGGDFGSRLKVNVTSKKKLNDSSPTSPMESSPVSPELVPILTLLNAHTHRRYHEGVFLILQDLNNNGTHAARKWKDVYGVLLGTQLALWDAKELAEFTDPSCPVSEKKLKEVASKPTYINLTDATLRTLDNSDNIVMECGKNLTNALVVSTTLKNRYFLQFGNKESFNAWNSAIRLCLYECSSLQEAYTGAFISSRGAKLGDIRILLTNRKYDYKDWVSVRFGAGMPWKRCYAVISQSSSKKKGHFGEINLYENDKKVKKNHAMATIVEAKALYAVYPSSPKLIDSSTIIKVVGSVKFEKKESAQEKDVFIMPEKHQAVPSYDTIIRFLIPAMDTFKLYGRPEKLLSSKNDPHSLLFGLPVLPHIYYLEVEDLLPLTNSVSSLHWSNNEWKEHISDILQRKIAQGYCGCNSTSNITSPLPSPFLGSADLFERADGVLSPKLSYGSKSSSNNSSKNSLPKRERVKLSSSSEQDLNNSDSPSIKRKSPPLVISESPHKVHTPTDASFRTRVTEGSPYAKQRHPKPFASSVNDSPSDRAKSRTVPYNNNDRKATTPEKFERGETSCGKNVDESLEKVRNMKLEIPESNFDKFMTDKNLLSVDSKCSNEKKLSVESDLSAIYEKYSNGPFGHTEGLNGSSDETYLRFQRASVHSESNYNSRKSFTPSDFSNGNEEEHAVLQELNSLTQRINELGMESINSNSDSDRINGSYSQVDFGNNNDEDDMNLFDPDFMAQDQLRAEERDYNKDDRTPLAKVPAAFQSTGLGITPDDDIERQYITEHRSRHEVPKRSPEKPSNPLEIGNPYAKPGTRLNTTHTHSKTDRSITPQRGQPVPSGQQISSYVQPANINSPNKMYGANNSAMGSPRNPKTRAPPGPYNQGWNNRPSPSNIYQRPHPSDTQPQAYHLPGNPYSTGNRPNMQAQYHPQQVPMPILQQPNRPYQPYAMNTHMGSPGGYAGAAPPFQPANVNYNTRPQQPWPTPNSPSAHYRPPPNLNQPQNGSAGYYRPPAPQLQNSQARPQKKDGFSQFMPSATTKNPYAQ
For B4, the binding result is listed as “binds”.

Source of the values: paper PMC7363780.
